Results published in paper PMC5303273.
No constants are given. Whether binding was seen depends on the method and setting. For some assays here: Binding seen in cells or lysates may run through a third protein. Some binding calls cover weakened binding; strength is not graded here.

Chains of the proteins cited; added tags and fusions are not shown. Lines headed by an entry give the natural chain unless they say otherwise; changes in a name come on top.
UniProt Q9VQ93: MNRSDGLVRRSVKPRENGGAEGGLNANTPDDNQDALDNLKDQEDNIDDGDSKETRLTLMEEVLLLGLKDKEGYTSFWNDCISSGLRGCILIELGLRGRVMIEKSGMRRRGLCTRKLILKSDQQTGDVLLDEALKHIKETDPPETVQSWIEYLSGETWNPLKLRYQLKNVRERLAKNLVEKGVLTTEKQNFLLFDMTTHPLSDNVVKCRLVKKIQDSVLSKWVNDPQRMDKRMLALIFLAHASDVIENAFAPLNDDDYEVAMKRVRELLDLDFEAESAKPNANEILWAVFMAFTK
UniProt O18332: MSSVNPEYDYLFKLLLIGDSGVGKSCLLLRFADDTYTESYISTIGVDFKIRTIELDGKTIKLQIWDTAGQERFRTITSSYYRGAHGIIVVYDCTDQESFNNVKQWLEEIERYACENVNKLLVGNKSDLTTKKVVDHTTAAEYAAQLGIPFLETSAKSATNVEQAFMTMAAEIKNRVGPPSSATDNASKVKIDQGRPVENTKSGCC

Legend:
[1] = biological target: Drosophila GOLPH3 (endogenous) (Drosophila melanogaster (endogenous in testes)) (UniProt Q9VQ93); test: proximity ligation; Duolink PLA with mouse anti-Rab1 S12085a and rabbit anti-GOLPH3 G49139/77 on fixed interphase and telophase spermatocytes; GOLPH3RNAi testes as negative control
[2] = biological target: Drosophila GOLPH3 (endogenous) (Drosophila melanogaster (endogenous in testes)) (UniProt Q9VQ93); test: co-IP; 400 adult wild-type testes in lysis buffer (10 mM Tris-HCl pH 7.5, 150 mM NaCl, 0.5 mM EDTA, 0.5% NP40); IP with rabbit anti-GOLPH3 G49139/77, preimmune serum as control, Protein G kit; blot with mouse anti-Rab1 S12085a
[3] = biological target: GOLPH3 bait (yeast two-hybrid) (Drosophila melanogaster) (UniProt Q9VQ93); test: two-hybrid; B42/lexA system, strain EGY48, bait in pEG202, prey in pJG4-5; X-GAL plates with raffinose or galactose; beta-galactosidase assay with ONPG

| binding [1] | binding [2] | binding [3] | Substance |
| --- | --- | --- | --- |
| binds | binds | – | Drosophila Rab1 (endogenous) (from UniProt O18332 1-205) |
| – | – | binds | Rab1 prey, wild type (yeast two-hybrid) (from UniProt O18332 1-205) |
| – | – | binds | Rab1Q70L prey (yeast two-hybrid) (from UniProt O18332 1-205) |
| – | – | binds weakly | Rab1S25N prey (yeast two-hybrid) (from UniProt O18332 1-205) |
